Results from patent publication US20050069877A1, “Protein modification and maintenance molecules” (priority 2001, published 2005).
Some of these results come from one statement about several compounds together.

System: expression of SEQ ID NO:29 in C3A cells
Assay: Microarray expression of SEQ ID NO:29 in steroid-treated cells
Assay type: cell-based, human
Settings: cells treated with steroids (C3A cell line context)

6α-methyl-17-hydroxyprogesterone [medroxyprogesterone]
expression of SEQ ID NO:29 altered by a factor of: ≥ 2
